What was measured:
[1] = Negative inotropic activity in guinea pig left atrium assessed as decrease in atrial tension relative to control; format: functional, tissue-based; conditions: Cavia porcellus, Cardiac atrium
Method in brief: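 Negative inotropic potency in guinea pig left atrium. EC50 is calculated from log concentration-response curves by probit analysis (Litchfield and Wilcoxon), n = 6-8.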

[2] = tested on: Ileum; assay: Vasorelaxant activity in K+-depolarized guinea pig ileum longitudinal smooth muscle assessed as inhibition of calcium-induced contraction; format: functional, tissue-based; conditions: Cavia porcellus

CC(C)NC[C@@H](O)COc1cccc2ccccc12 [DEXPROPRANOLOL]
EC50 [1]: 1.54 µM | IC50 [2]: 27.1 µM

Source: ChEMBL document CHEMBL1140072, “Discovery of novel and cardioselective diltiazem-like calcium channel blockers via virtual screening” (J Med Chem, 2008)
